For one molecule, binding results are on record in paper PMC11742405.

No constants are given. Whether binding was seen depends on the method and setting. In cells and extracts the contact can be indirect. A yes stands for co-enrichment or nearness to the bait. Other partners may have been found.

The target of this test is PRR33-Turbo-ID (mouse). Kind of test: proximity labelling; Turbo-ID-MS: C2C12 about 48 h after Ad-Prr33-TurboID infection, biotin 400 uM for 15 min, streptavidin magnetic beads, SDS-PAGE, mass spectrometry.

B1: ZYX (Zyxin) (protein, UniProt Q62523 1-564)
chain: MAAPRPPPAISVSVSAPAFYAPQKKFAPVVAPKPKVNPFRPGDSEPPVAAGAQRAQMGRVGEIPPPPPEDFPLPPPPLIGEGDDSEGALGGAFPPPPPPMIEEPFPPAPLEEDIFPSPPPPLEEEGGPEAPTQLPPQPREKVCSIDLEIDSLSSLLDDMTKNDPFKARVSSGYVPPPVATPFVPKPSTKPAPGGTAPLPPWKTPSSSQPPPQPQAKPQVQLHVQPQAKPHVQPQPVSSANTQPRGPLSQAPTPAPKFAPVAPKFTPVVSKFSPGAPSGPGPQPNQKMVPPDAPSSVSTGSPQPPSFTYAQQKEKPLVQEKQHPQPPPAQNQNQVRSPGGPGPLTLKEVEELEQLTQQLMQDMEHPQRQSVAVNESCGKCNQPLARAQPAVRALGQLFHITCFTCHQCQQQLQGQQFYSLEGAPYCEGCYTDTLEKCNTCGQPITDRMLRATGKAYHPQCFTCVVCACPLEGTSFIVDQANQPHCVPDYHKQYAPRCSVCSEPIMPEPGRDETVRVVALDKNFHMKCYKCEDCGKPLSIEADDNGCFPLDGHVLCRKCHSARAQT
For the molecule B1, the binding entry is recorded as “binds”.
